Publication PMC5003356
Construct, isoform or probe ends are uncertain for at least one entry. At least one result comes from cells or an extract, where the contact may be indirect. For some of these results: Weaker means in comparison with the reference protein, sequence or condition of that experiment. For some of these results: Tags and fusion partners may be left off the protein sequences shown. For some of these results: The direction of at least one scale is not stated here.

What was measured:
NLuc-cJun = NLuc-cJun (UniProt P05627); test: BRET; settings: digitonin-permeabilized HeLa, 'virtually no binding'; BRET: 1X binding buffer (0.1 M potassium acetate, 20 mM Tris pH 7.5, 1 mM EDTA, 0.01% NP-40), room temperature, 15 min; protein in a lysate after overexpression; protein details: N-terminal NLuc; label: 3' Alexa Fluor 594; single-stranded DNA
LRPPRC-NLuc [1] = target: LRPPRC-NLuc (UniProt P42704); test: competition BRET; settings: 3-10-3 cEt gap-mer; BRET: 1X binding buffer (0.1 M potassium acetate, 20 mM Tris pH 7.5, 1 mM EDTA, 0.01% NP-40), room temperature, 15 min; protein in a lysate after overexpression; protein details: C-terminal NLuc; synthetic backbone
[2] = target: NCL (RBD 1-4) NLuc fusion (UniProt P09405); test: competition BRET; settings: 3-10-3 cEt gap-mer; BRET: 1X binding buffer (0.1 M potassium acetate, 20 mM Tris pH 7.5, 1 mM EDTA, 0.01% NP-40), room temperature, 15 min; protein in a lysate after overexpression; protein details: NLuc (N or C); synthetic backbone
[3] = target: P54nrb NLuc fusion (Homo sapiens) (UniProt Q15233); test: competition BRET; settings: 3-10-3 cEt gap-mer; BRET: 1X binding buffer (0.1 M potassium acetate, 20 mM Tris pH 7.5, 1 mM EDTA, 0.01% NP-40), room temperature, 15 min; protein in a lysate after overexpression; protein details: NLuc (N or C); synthetic backbone
RNase H1 NLuc fusion [4] = target: T1, RNase H1 NLuc fusion (UniProt O60930); test: competition BRET; settings: 3-10-3 cEt gap-mer; BRET: 1X binding buffer (0.1 M potassium acetate, 20 mM Tris pH 7.5, 1 mM EDTA, 0.01% NP-40), room temperature, 15 min; protein in a lysate after overexpression; protein details: NLuc (N or C); synthetic backbone
T1 sequence (looked up, limits assumed): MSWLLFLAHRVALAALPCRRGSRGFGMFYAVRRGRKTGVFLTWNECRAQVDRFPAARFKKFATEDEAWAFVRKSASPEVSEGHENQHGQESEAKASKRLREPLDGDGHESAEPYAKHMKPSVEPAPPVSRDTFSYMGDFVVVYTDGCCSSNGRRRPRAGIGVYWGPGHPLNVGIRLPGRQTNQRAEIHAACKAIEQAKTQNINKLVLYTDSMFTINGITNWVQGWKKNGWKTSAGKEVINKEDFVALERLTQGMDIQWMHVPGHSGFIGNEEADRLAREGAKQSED

Staufen1 NLuc fusion = target: T2, Staufen1 NLuc fusion (UniProt O95793); test: BRET; settings: range over ssRNA, ssDNA and RNA/DNA; BRET: 1X binding buffer (0.1 M potassium acetate, 20 mM Tris pH 7.5, 1 mM EDTA, 0.01% NP-40), room temperature, 15 min; protein in a lysate after overexpression; label: 3' Alexa Fluor 594 on strand 1; DNA:RNA hybrid
T2 sequence (looked up, limits assumed): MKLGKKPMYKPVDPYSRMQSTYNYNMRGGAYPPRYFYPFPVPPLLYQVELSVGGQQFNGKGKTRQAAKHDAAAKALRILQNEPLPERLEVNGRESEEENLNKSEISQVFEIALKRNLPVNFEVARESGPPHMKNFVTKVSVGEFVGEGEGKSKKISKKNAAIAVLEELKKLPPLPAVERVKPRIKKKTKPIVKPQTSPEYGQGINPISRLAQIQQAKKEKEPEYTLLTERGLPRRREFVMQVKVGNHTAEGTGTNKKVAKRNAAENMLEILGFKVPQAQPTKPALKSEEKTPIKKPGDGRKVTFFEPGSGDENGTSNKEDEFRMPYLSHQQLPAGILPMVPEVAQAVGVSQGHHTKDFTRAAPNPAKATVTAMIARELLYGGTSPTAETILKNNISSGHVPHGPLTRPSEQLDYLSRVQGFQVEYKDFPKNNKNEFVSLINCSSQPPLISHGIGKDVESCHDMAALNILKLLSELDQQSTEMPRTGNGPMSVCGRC

ANXA2-NLuc = ANXA2-NLuc (UniProt P07356); test: BRET; settings: PS; 5-10-5 2'-F gap-mer; BRET: 1X binding buffer (0.1 M potassium acetate, 20 mM Tris pH 7.5, 1 mM EDTA, 0.01% NP-40), room temperature, 15 min; protein in a lysate after overexpression; protein details: C-terminal NLuc; label: 3' Alexa Fluor 594; synthetic backbone
FUS-NLuc = target: T3, FUS-NLuc (UniProt P56959); test: BRET; settings: PS; 5-10-5 2'-F gap-mer; BRET: 1X binding buffer (0.1 M potassium acetate, 20 mM Tris pH 7.5, 1 mM EDTA, 0.01% NP-40), room temperature, 15 min; protein in a lysate after overexpression; protein details: C-terminal NLuc; label: 3' Alexa Fluor 594; synthetic backbone
T3 sequence (looked up, limits assumed): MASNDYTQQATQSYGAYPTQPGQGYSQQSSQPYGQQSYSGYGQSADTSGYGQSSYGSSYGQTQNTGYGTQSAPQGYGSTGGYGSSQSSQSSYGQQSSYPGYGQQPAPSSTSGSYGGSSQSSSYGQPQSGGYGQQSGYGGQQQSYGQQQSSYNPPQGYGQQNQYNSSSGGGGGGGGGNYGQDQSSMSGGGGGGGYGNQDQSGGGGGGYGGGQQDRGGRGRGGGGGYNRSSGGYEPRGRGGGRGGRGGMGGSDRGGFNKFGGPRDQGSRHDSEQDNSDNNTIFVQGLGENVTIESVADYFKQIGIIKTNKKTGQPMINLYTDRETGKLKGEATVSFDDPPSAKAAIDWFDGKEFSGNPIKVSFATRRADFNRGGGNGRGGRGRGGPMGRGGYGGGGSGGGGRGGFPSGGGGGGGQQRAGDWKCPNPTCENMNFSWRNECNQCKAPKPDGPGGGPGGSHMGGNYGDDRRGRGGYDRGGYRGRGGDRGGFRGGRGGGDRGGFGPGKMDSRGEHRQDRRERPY

HSP90 (mid)-NLuc = HSP90 (mid)-NLuc (UniProt P07900); test: BRET; settings: PS; 5-10-5 2'-F gap-mer; BRET: 1X binding buffer (0.1 M potassium acetate, 20 mM Tris pH 7.5, 1 mM EDTA, 0.01% NP-40), room temperature, 15 min; protein in a lysate after overexpression; protein details: C-terminal NLuc; label: 3' Alexa Fluor 594; synthetic backbone
Ku70-NLuc = Ku70-NLuc (UniProt P12956); test: BRET; settings: PS; 5-10-5 2'-F gap-mer; BRET: 1X binding buffer (0.1 M potassium acetate, 20 mM Tris pH 7.5, 1 mM EDTA, 0.01% NP-40), room temperature, 15 min; protein in a lysate after overexpression; protein details: C-terminal NLuc; label: 3' Alexa Fluor 594; synthetic backbone
LRPPRC-NLuc [5] = target: LRPPRC-NLuc (UniProt P42704); test: BRET; settings: PS; 5-10-5 2'-F gap-mer; BRET: 1X binding buffer (0.1 M potassium acetate, 20 mM Tris pH 7.5, 1 mM EDTA, 0.01% NP-40), room temperature, 15 min; protein in a lysate after overexpression; protein details: C-terminal NLuc; label: 3' Alexa Fluor 594; synthetic backbone
La NLuc fusion = La NLuc fusion (UniProt P05455); test: BRET; settings: PS; 5-10-5 2'-F gap-mer; BRET: 1X binding buffer (0.1 M potassium acetate, 20 mM Tris pH 7.5, 1 mM EDTA, 0.01% NP-40), room temperature, 15 min; protein in a lysate after overexpression; protein details: NLuc (N or C); label: 3' Alexa Fluor 594; synthetic backbone
[6] = target: NCL (RBD 1-4) NLuc fusion (UniProt P09405); test: BRET; settings: PS; 5-10-5 2'-F gap-mer; BRET: 1X binding buffer (0.1 M potassium acetate, 20 mM Tris pH 7.5, 1 mM EDTA, 0.01% NP-40), room temperature, 15 min; protein in a lysate after overexpression; protein details: NLuc (N or C); label: 3' Alexa Fluor 594; synthetic backbone
NLuc-PC4 = NLuc-PC4 (UniProt P53999); test: BRET; settings: PS; 5-10-5 2'-F gap-mer; BRET: 1X binding buffer (0.1 M potassium acetate, 20 mM Tris pH 7.5, 1 mM EDTA, 0.01% NP-40), room temperature, 15 min; protein in a lysate after overexpression; protein details: N-terminal NLuc; label: 3' Alexa Fluor 594; synthetic backbone
NLuc-RPL11 = NLuc-RPL11 (UniProt P62913); test: BRET; settings: PS; 5-10-5 2'-F gap-mer; BRET: 1X binding buffer (0.1 M potassium acetate, 20 mM Tris pH 7.5, 1 mM EDTA, 0.01% NP-40), room temperature, 15 min; protein in a lysate after overexpression; protein details: N-terminal NLuc; label: 3' Alexa Fluor 594; synthetic backbone
NLuc-RPL5 = NLuc-RPL5 (UniProt P47962); test: BRET; settings: PS; 5-10-5 2'-F gap-mer; BRET: 1X binding buffer (0.1 M potassium acetate, 20 mM Tris pH 7.5, 1 mM EDTA, 0.01% NP-40), room temperature, 15 min; protein in a lysate after overexpression; protein details: N-terminal NLuc; label: 3' Alexa Fluor 594; synthetic backbone
NLuc-TCP1-beta = target: T4, NLuc-TCP1-beta (UniProt P80314); test: BRET; settings: PS; 5-10-5 2'-F gap-mer; BRET: 1X binding buffer (0.1 M potassium acetate, 20 mM Tris pH 7.5, 1 mM EDTA, 0.01% NP-40), room temperature, 15 min; protein in a lysate after overexpression; protein details: N-terminal NLuc; label: 3' Alexa Fluor 594; synthetic backbone
T4 sequence (looked up, limits assumed): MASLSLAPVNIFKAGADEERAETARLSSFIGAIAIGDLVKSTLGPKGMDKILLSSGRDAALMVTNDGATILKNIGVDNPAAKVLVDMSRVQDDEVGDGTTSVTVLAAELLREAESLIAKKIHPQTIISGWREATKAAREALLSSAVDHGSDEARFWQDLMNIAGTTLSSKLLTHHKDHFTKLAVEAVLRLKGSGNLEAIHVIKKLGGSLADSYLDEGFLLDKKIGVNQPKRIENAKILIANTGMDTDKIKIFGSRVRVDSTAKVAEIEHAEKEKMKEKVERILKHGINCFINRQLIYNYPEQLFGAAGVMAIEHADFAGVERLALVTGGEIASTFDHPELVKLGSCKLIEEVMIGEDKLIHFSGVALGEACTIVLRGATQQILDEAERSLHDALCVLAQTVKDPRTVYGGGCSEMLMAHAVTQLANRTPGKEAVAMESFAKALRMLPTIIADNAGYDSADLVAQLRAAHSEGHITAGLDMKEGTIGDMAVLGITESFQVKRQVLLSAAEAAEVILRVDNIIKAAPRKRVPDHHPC

NMP1 (NPM1) NLuc fusion = NMP1 (NPM1) NLuc fusion (UniProt P06748); test: BRET; settings: PS; 5-10-5 2'-F gap-mer; BRET: 1X binding buffer (0.1 M potassium acetate, 20 mM Tris pH 7.5, 1 mM EDTA, 0.01% NP-40), room temperature, 15 min; protein in a lysate after overexpression; protein details: NLuc (N or C); label: 3' Alexa Fluor 594; synthetic backbone
[7] = target: P54nrb NLuc fusion (Homo sapiens) (UniProt Q15233); test: BRET; settings: PS; 5-10-5 2'-F gap-mer; BRET: 1X binding buffer (0.1 M potassium acetate, 20 mM Tris pH 7.5, 1 mM EDTA, 0.01% NP-40), room temperature, 15 min; protein in a lysate after overexpression; protein details: NLuc (N or C); label: 3' Alexa Fluor 594; synthetic backbone
RNase H1 NLuc fusion [8] = target: T1, RNase H1 NLuc fusion; test: BRET; settings: PS; 5-10-5 2'-F gap-mer; BRET: 1X binding buffer (0.1 M potassium acetate, 20 mM Tris pH 7.5, 1 mM EDTA, 0.01% NP-40), room temperature, 15 min; protein in a lysate after overexpression; protein details: NLuc (N or C); label: 3' Alexa Fluor 594; synthetic backbone
SFPQ-NLuc = SFPQ-NLuc (UniProt P23246); test: BRET; settings: PS; 5-10-5 2'-F gap-mer; BRET: 1X binding buffer (0.1 M potassium acetate, 20 mM Tris pH 7.5, 1 mM EDTA, 0.01% NP-40), room temperature, 15 min; protein in a lysate after overexpression; protein details: C-terminal NLuc; label: 3' Alexa Fluor 594; synthetic backbone

CGCTTGATGAGTCAGCCGGAA [AP1 ss] gave a binding signal (fold lower affinity than ds AP1) (NLuc-cJun) of 100.

Sequence CTTCTAGCCACTGGCT [661010] has a Kd (LRPPRC-NLuc [1]) of 1.21 nM, a Kd [2] of 19 nM and a Kd [3] of 42.7 nM. It also gave a Kd (RNase H1 NLuc fusion [4]) of 113 nM.

“CUGCUAGCCUCUGGAUUUGA / TATGGGGTCAAATCCAGAGGCTAGCAGAAGGGAGTAACTA [STAU1 RNA/DNA]”: binds more weakly (Staufen1 NLuc fusion).

ACCCTGCCACGATGTA [660992] was tested, and the Kd (LRPPRC-NLuc [1]) was 0.01 nM, the Kd [2] was 2.88 nM and the Kd [3] was 15.2 nM. The Kd (RNase H1 NLuc fusion [4]) was 46.3 nM.

Sequence “CTGCTAGCCTCTGGATTTGA [766638 2'-F gap-mer]” has a Kd (ANXA2-NLuc) greater than 1000 nM, a Kd (FUS-NLuc) of 0.12 nM and a Kd (HSP90 (mid)-NLuc) of 98 nM. For the same sequence, the Kd (Ku70-NLuc) was 3 nM, the Kd (LRPPRC-NLuc [5]) was 0.19 nM and the Kd (La NLuc fusion) was 1.1 nM. It also gave a Kd [6] of 0.002 nM, a Kd (NLuc-PC4) of 0.21 nM and a Kd (NLuc-RPL11) of 9.8 nM. For the same sequence, the Kd (NLuc-RPL5) was 0.6 nM, the Kd (NLuc-TCP1-beta) was 189 nM and the Kd (NMP1 (NPM1) NLuc fusion) was greater than 1000 nM. For the same sequence, the Kd [7] was 2.1 nM, the Kd (RNase H1 NLuc fusion [8]) was 2 nM and the Kd (SFPQ-NLuc) was 0.72 nM.
